Assay results reported in publication PMC10203745.
Results are given in words; binding and its absence hold for the method and conditions named. In cells and extracts the contact can be indirect. Some results given as binding are weak or reduced against the parent protein; the word gives no strength.

By UniProt entry, the sequences of proteins in these tests, tags left out. Where a name states a change or a piece, a line headed by the entry shows the natural chain unless it says otherwise.
UniProt Q6PHQ9: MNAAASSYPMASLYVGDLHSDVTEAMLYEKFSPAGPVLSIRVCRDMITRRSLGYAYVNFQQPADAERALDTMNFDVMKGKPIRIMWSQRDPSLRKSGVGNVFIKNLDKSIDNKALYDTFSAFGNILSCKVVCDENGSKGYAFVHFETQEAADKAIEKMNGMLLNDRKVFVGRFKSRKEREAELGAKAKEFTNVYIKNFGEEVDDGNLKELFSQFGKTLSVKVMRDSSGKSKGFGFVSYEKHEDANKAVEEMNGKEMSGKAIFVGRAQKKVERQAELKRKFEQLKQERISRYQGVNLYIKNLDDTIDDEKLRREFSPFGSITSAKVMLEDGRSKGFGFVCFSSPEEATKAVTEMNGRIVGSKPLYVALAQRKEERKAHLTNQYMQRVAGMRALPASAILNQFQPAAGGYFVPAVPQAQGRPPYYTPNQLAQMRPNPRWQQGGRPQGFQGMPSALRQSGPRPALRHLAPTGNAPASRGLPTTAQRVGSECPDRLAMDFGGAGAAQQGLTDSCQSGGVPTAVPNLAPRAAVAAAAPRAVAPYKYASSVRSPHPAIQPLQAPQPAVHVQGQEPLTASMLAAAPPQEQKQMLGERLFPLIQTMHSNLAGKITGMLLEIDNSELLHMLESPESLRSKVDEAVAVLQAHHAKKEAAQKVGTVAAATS
UniProt Q60974: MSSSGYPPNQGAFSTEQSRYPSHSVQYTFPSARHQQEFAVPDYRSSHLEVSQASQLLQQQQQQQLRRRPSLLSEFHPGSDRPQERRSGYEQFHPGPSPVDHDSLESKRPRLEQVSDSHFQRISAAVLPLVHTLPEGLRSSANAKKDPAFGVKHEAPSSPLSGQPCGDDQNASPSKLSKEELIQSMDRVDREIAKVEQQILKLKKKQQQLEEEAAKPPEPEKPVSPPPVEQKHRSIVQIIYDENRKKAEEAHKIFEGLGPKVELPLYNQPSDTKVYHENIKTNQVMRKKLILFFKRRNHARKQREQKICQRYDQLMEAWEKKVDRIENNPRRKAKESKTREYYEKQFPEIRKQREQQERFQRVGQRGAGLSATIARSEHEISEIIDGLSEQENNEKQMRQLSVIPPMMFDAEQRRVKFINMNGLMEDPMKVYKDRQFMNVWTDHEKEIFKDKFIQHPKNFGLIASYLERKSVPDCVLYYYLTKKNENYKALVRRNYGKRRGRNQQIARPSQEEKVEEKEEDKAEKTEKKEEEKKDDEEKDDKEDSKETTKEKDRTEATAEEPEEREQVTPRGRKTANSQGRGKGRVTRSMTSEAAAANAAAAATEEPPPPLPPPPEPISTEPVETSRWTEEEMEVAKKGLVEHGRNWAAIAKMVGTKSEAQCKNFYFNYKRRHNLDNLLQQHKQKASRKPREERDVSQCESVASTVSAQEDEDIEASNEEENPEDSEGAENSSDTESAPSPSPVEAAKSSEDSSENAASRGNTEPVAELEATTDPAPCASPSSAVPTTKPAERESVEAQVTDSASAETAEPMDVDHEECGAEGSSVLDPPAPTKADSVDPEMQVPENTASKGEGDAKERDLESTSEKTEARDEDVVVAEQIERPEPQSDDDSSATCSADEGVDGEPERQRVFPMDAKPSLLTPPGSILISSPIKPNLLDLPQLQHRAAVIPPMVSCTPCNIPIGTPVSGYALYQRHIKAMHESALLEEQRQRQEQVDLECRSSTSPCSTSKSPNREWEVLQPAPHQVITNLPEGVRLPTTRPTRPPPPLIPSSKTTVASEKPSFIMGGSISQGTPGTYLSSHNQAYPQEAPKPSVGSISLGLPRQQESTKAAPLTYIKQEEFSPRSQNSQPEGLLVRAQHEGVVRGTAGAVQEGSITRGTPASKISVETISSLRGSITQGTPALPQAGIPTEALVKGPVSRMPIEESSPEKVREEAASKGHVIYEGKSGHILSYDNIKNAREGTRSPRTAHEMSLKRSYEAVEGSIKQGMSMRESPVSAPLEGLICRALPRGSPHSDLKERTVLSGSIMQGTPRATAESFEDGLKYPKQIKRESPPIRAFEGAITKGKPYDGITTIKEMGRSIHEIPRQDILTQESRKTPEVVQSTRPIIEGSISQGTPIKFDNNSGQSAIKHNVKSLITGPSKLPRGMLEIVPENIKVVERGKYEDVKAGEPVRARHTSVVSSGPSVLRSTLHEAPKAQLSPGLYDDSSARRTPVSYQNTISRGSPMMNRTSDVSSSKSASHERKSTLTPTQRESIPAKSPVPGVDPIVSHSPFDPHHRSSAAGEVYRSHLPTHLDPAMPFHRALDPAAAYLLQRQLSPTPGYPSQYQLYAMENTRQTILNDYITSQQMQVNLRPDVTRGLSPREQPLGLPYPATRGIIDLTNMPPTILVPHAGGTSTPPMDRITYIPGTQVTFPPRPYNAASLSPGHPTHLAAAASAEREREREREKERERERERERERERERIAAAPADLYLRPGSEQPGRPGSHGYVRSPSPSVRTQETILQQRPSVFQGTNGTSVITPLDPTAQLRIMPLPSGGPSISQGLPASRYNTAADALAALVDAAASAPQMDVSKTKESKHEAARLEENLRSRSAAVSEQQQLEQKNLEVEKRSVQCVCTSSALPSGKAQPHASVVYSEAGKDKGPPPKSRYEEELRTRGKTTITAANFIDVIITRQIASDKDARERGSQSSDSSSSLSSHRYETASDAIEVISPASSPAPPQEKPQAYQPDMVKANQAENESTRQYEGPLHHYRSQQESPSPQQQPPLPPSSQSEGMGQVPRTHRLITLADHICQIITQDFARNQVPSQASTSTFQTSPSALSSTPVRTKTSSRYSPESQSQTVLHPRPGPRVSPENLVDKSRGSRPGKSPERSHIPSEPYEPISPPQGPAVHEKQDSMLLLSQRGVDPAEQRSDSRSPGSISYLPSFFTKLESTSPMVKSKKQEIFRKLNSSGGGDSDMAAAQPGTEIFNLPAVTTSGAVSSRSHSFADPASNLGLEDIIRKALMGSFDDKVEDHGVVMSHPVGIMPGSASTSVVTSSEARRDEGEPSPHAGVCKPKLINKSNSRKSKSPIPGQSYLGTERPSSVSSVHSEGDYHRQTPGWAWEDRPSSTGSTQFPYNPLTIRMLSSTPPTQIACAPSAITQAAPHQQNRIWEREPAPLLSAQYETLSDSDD

Columns and labels:
[1] = molecular target: poly(A)-binding protein cytoplasmic 4 (PABPC4), FLAG-tagged, immunoprecipitated in the reverse co-IP (UniProt Q6PHQ9); test: co-IP; co-IP of PABPC4 and NCoR1 followed by RNAse treatment
[2] = molecular target: poly(A)-binding protein cytoplasmic 4 (PABPC4), FLAG-tagged, immunoprecipitated in the reverse co-IP (UniProt Q6PHQ9); test: co-IP; reverse co-IP: PABPC4 immunoprecipitated (anti-FLAG M2 affinity gel, overnight, 4 °C), samples probed with NCoR1 antibody; lysis in 25 mM Tris pH 7.9, 150 mM NaCl, 1 mM EDTA, 1% Triton X-100; the interaction was lower in cells subjected to glucose deprivation (Fig. S4E)
PABPC4-GST = PABPC4-GST (UniProt Q6PHQ9); test: pull-down; PABPC4-GST or GST from E. coli lysate bound to glutathione agarose resin (batch method, 16 h, 4 °C), washed four times, incubated 16 h at 4 °C with Hek293T lysate containing the FLAG-tagged protein (NP-40 lysis buffer: 50 mM Tris-HCl pH 8.0, 150 mM NaCl, 1% NP-40); eluted with 10 mM reduced glutathione; anti-FLAG Western blot; only the target purified

Row | binding [1] | binding [2] | binding (PABPC4-GST) | Substance
1 | binds | binds |  | endogenous nuclear receptor corepressor 1 (NCoR1) (from UniProt Q60974 1-2453)
2 |  |  | binds | nuclear receptor corepressor 1 (NCoR1) full-length, FLAG-tagged, expressed in Hek293T cells (from UniProt Q60974 1-2453)
3 |  |  | binds | NCoR1 N-terminal portion (1-1628aa), FLAG-tagged (from UniProt Q60974 1-1628) (domain or fragment)
